Assay: peptide synthesis
Conditions: conjugation step

In the case of “(3S,7S,25S,28S)-25-benzyl-33-(4-(4-(((R)-1-(((S)-1-((4-((5S,8S,11S,12R)-11-((S)-sec-butyl)-12-(2-((S)-2-((1R,2R)-3-(((1S,2R)-1-hydroxi-1-phenylpropan-2-yl)amino)-1-methoxi-2-methyl-3-oxopropyl) pyrrolidine-1-yl)-oxoethyl)-5,8-diisopropyl-4,10-dimethyl-3,6,9-trioxo-2,13-dioxo-4,7,10-triazatetradecyl)phenyl)amino)-1-oxo-5-ureidopentan-2-yl)amino)-3-methyl-1-oxobutan-2-yl)amino)-4-oxobutyl)-1H-1,2,3-triazol-1-yl)-12-(3-chlorbenzyl)-28-(4-hydroxybenzyl)-5,13,20,23,26,29-hexaoxo-4,6,12,19,24,27,30-heptaazatritracontan-1,3,7-tricarboxylic acid”, the conjugation yield is reported as 78%.
